Record: PubChem BioAssay AID1053208 (Peter MacCallum Cancer Centre, 2014)
In all, the deposit lists about 17,000 reagents; below is a random part of them. In the full data, 788 (4.7%) got an active call. 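Calls rest on z-score classes alone; an extra cut-off of viability at most 70% of control was not applied to them.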 Unmarked entries are inactive. Not all columns of the deposit are shown.

Assay: 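Genes whose silencing cuts survival of bone tumour cells only with doxorubicin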 (primary screen)
Cell system: mouse osteosarcoma cells, early-passage culture from an engineered mouse model of fibroblastic bone tumour
Reagent: siRNA pool against mouse genes, 40 nM
Duration: about 120 h (48 h before drug, then 72 h with drug)
Conditions: doxorubicin 100 nM for 72 h, roughly 30-40% inhibitory dose
Detection: 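Luminescent ATP signal taken as viability with or without 100 nM doxorubicin for 72 h; mean of two wells set against non-targeting siRNA and turned into robust z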
Scale: viability z-score with doxorubicin: higher = more viable cells under doxorubicin; viability z-score without drug: higher = more viable cells with knock-down alone
Active means: 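a pool counts as active when its viability z-score with doxorubicin is -2 or below and its z-score without drug lies between -2 and 2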

For Khdrbs1, what was measured?
combined z-score class: no change with or without drug; viability z-score with doxorubicin: -1.46; viability z-score without drug: -1.18

What did the screen give for Slf1 (SMC5-SMC6 complex localization factor 1)?
combined z-score class: no change with or without drug; viability z-score with doxorubicin: -0.22; viability z-score without drug: 0.51

For Senp6 (SUMO/sentrin specific peptidase 6), what was measured?
combined z-score class: low cell count with doxorubicin only (active); viability z-score with doxorubicin: -2.47; viability z-score without drug: 0.17

For Nhlrc3 (NHL repeat containing 3), how do the results read?
combined z-score class: no change with or without drug; viability z-score with doxorubicin: 0.45; viability z-score without drug: 1.85

How did the screen score Zfp536 (zinc finger protein 536)?
combined z-score class: no change with or without drug; viability z-score with doxorubicin: 0.22; viability z-score without drug: -0.17

Part of the list above, reformatted.
gene symbol	combined z-score class	viability z-score with doxorubicin	viability z-score without drug
Nhlrc3 (NHL repeat containing 3)	no change with or without drug	0.45	1.85
Zfp536 (zinc finger protein 536)	no change with or without drug	0.22	-0.17

Continued:
With Eefsec (eukaryotic elongation factor, selenocysteine-tRNA-specific), what was measured?
combined z-score class: no change with or without drug; viability z-score with doxorubicin: -0.9; viability z-score without drug: -1.52

Which result is listed for Zbtb32 (zinc finger and BTB domain containing 32)?
combined z-score class: no change with or without drug; viability z-score with doxorubicin: -1.24; viability z-score without drug: -1.52

For Eml6 (echinoderm microtubule associated protein like 6), what does the deposit list?
combined z-score class: no change with or without drug; viability z-score with doxorubicin: -0.11; viability z-score without drug: 0.34

For Isl1 (ISL1 transcription factor, LIM/homeodomain), what was measured?
combined z-score class: no change with or without drug; viability z-score with doxorubicin: 0.45; viability z-score without drug: 0.17

For Tspan5 (tetraspanin 5), what does the deposit list?
combined z-score class: no change with or without drug; viability z-score with doxorubicin: 1.01; viability z-score without drug: 0.17

With Abca3 (ATP-binding cassette, sub-family A member 3), what does the deposit list?
combined z-score class: no change with or without drug; viability z-score with doxorubicin: 0.79; viability z-score without drug: 0.51

For Iffo2 (intermediate filament family orphan 2), what was measured?
combined z-score class: low cell count with doxorubicin only (active); viability z-score with doxorubicin: -2.25; viability z-score without drug: -0.67
